# Data reported in PubChem BioAssay AID493014 (National Center for Advancing Translational Sciences (NCATS), 2011).
# About 170 (0.05%) of roughly 340,000 compounds were called active. Inconclusive results, whose numbers are uncertain, are shown with a selection of clear calls. Calls follow the shape of the dose curve; as a rule, active = well fitted inhibition curve with a large enough effect in the signal ratio, with a control signal flat (not every such curve was filed as active); inconclusive = small, poorly fitted or top-dose-only effect, or effect the other way, or a change in a side signal; inactive = flat fitted curve, though single readings scatter; the % refers to the signal ratio. Potencies of inconclusive entries are doubtful fits and often do not repeat.
# Assay: qHTS Assay to Find Inhibitors of Chronic Active B-Cell Receptor Signaling;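 as to activity change, negative = inhibition: plate controls were basal doxycycline-induced cells for no effect and cells given 10 µM MG132 for full effect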
# Conditions: ABC-DLBCL IkBa-CBG/CBR reporter, luminescence ratio (green luciferase fused to IkBa over red control in TMD8 lymphoma cells), 4 h; activity change, negative = inhibition: at 46.1 µM (top of the series)
# In short: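 Compounds up to 46 uM were incubated four hours with TMD8 cells whose green CBG68 luciferase is fused to IkappaBalpha; red CBR luminescence normalised the signal, and concentration-effect curves were fitted to fusion, red and ratio data.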
# Potency is read from the fitted curve at half-maximal effect.
SMILES,"activity change, negative = inhibition",Potency
COc1ccc(CNCCS(=O)(=O)NC2CCCC2)cc1,inconclusive: -4.38%,
Oc1c(/C=N/Nc2cccc3cccnc23)ccc2ccccc12,inactive: -1.06%,
CNC(=O)C12N=CNN=C1N(C)C(=O)N2C (stereo not given),inconclusive: 15.1%,
CCOc1cccc(OCCOc2ccccc2[N+](=O)[O-])c1,inconclusive: 8.19%,
COc1cc2c(cc1OC)C(C1C(=O)CC(C)CC1=O)N(C(=O)CCl)CC2 (stereo not given),inconclusive: 18.6%,
Cc1ccccc1SCC(=O)OCC(=O)Nc1sccc1C(N)=O,inactive: -5.32%,
CCCCCCc1ccc(-c2ncc(N)cn2)cc1,inconclusive: 5.86%,
COc1ccc(F)cc1S(=O)(=O)N1CCC(C(N)=O)CC1,inactive: 0.0241%,
COC(=O)c1sc(NC(=S)NC(=O)c2ccc(F)cc2)nc1C,inactive: -0.309%,
COc1ccc(S(=O)(=O)NC(CC(=O)NCc2ccco2)C(C)C)cc1 (stereo not given),inconclusive: -0.215%,
CCC(=O)N1CCCc2cc(S(=O)(=O)N3CCC(C(=O)Nc4cccc(Cl)c4)CC3)ccc21,,"inconclusive: 35.5 µM [rising, single point]"
Cc1ccc(S(=O)(=O)N2CCN(C(=O)c3ccc(-n4cncn4)c([N+](=O)[O-])c3)CC2)cc1C,inconclusive: 0.403%,
Cc1noc(NS(=O)(=O)c2ccc(NC(=O)Nc3ccc(Cl)c(Cl)c3)cc2)c1C,inactive: -2.13%,
COC(=O)/C=C1\N/C(=N\c2nc(C)cc(C)n2)N(c2ccc(Cl)cc2)C1=O,inconclusive: -8.3%,
CN1C(C(=O)NCc2ccco2)=CC(c2ccc(F)cc2)=NS1(=O)=O,inconclusive: 3.92%,
Fc1ccccc1NC(=S)N1CCN(c2ccccn2)CC1,inconclusive: 8.87%,
COc1ccc(C(=O)Nc2cccc(-c3ccc(N4CCOCC4)nn3)c2)cc1OC,inconclusive: -27.6%,
Cc1cccc(C)c1N(CC(=O)NCc1ccco1)C(=O)CNS(=O)(=O)c1ccc(F)cc1,inconclusive: -1.71%,
CC(=O)c1ccccc1NC(=O)COC(=O)CCCN1C(=O)c2cccc3cccc(c23)C1=O,inconclusive: 24.2%,
Clc1cccc(-n2ncc3c(Nc4ccc5c(c4)OCCO5)ncnc32)c1,inconclusive: 14.9%,
COC(=O)c1ccc(NC(=S)NC2CC3CCC2C3)cc1 (stereo not given),inconclusive: 0.644%,
Cc1c(C(=O)Nc2c(F)cccc2F)sc2ncn(CC(=O)N3CCCCC3)c(=O)c12,inconclusive: -4.89%,
Cc1ccccc1C(=O)NCC(=O)NNC(=O)c1cccc(Cl)c1,inconclusive: 1.76%,
O=C(CCCc1ccccc1)Nc1ccnn1C1CCN(Cc2ccccc2)CC1,inconclusive: -0.0678%,
COC(=O)[C@@]1(Cc2ccc(OC)cc2)[C@@H]2C(=CC(=O)[C@H]2CC(=O)C(=O)N2CCCC2)CN1C(=O)c1ccccc1,,"inconclusive: 20.6 µM [falling, single point]"
COc1ccc(C(=O)N2CCN(c3ccc(NC(=O)c4cccs4)cc3)CC2)cc1,inactive: -1.48%,
NC(N)=N/N=C/c1ccc2cccc(OCc3ccccc3)c2n1,inactive: -2.53%,

# Single values from above.
# Potency with `CCC(=O)N1CCCc2cc(S(=O)(=O)N3CCC(C(=O)Nc4cccc(Cl)c4)CC3)ccc21` reads inconclusive: 35.5 µM [rising, single point]
# activity change, negative = inhibition with `CN1C(C(=O)NCc2ccco2)=CC(c2ccc(F)cc2)=NS1(=O)=O` reads inconclusive: 3.92%
# activity change, negative = inhibition with `Fc1ccccc1NC(=S)N1CCN(c2ccccn2)CC1` reads inconclusive: 8.87%
# activity change, negative = inhibition with `Clc1cccc(-n2ncc3c(Nc4ccc5c(c4)OCCO5)ncnc32)c1` reads inconclusive: 14.9%
# activity change, negative = inhibition with `CCCCCCc1ccc(-c2ncc(N)cn2)cc1` reads inconclusive: 5.86%
# activity change, negative = inhibition with `Cc1noc(NS(=O)(=O)c2ccc(NC(=O)Nc3ccc(Cl)c(Cl)c3)cc2)c1C` reads inactive: -2.13%

# Going on with the list:

SMILES,"activity change, negative = inhibition",Potency
O=C1Nc2ccccc2/C1=N\c1sc2c(c1C(=O)Nc1ccccc1)CCCC2,inconclusive: 19.1%,
Cc1[nH]n(-c2ccc(F)cc2)c(=O)c1C=Nc1ccc(S(=O)(=O)N(C)C)cc1,inconclusive: -3.87%,
COCCNC(=O)C(c1ccc(C)cc1)N(C(=O)CCC(=O)Nc1ccccn1)C1CCCCC1 (stereo not given),inconclusive: 2.51%,
Cc1cccc(CCNC(=O)CCCOc2cc(=O)n(C)c3ccccc23)c1,inconclusive: 0.113%,
COc1ccc(OC)c(NC(=O)c2c(NCc3ccc(N(C)C)cc3)sc3c2CCCC3)c1,inconclusive: 16%,
O=C(Nc1nc2c(Cl)cccc2s1)c1ccc(Br)o1,,"inconclusive: 13 µM [falling, partial curve, poor fit]"
COc1ccc(OCC(=O)NCCNC(=O)c2cccnc2)cc1,inconclusive: -8.86%,
Cc1ccc(S(=O)(=O)N2CCC(C(=O)OC(C)C(=O)NC(N)=O)CC2)cc1C (stereo not given),inconclusive: 1.59%,
C=CCOc1ccc(Br)cc1/C=N/O,inconclusive: 5.47%,
COc1cc(C(=O)N/C(=C\c2cn(C)c3ccccc23)C(=O)NCCCO)cc(OC)c1OC,,"inconclusive: 11.2 µM [rising, partial curve, poor fit]"
CCN(CC)c1nc(-c2ccccn2)nc(-c2ccccc2)c1C#N,inactive: -18.4%,
Cc1ccc([N+](=O)[O-])cc1NC(=O)Cc1cccs1,,"inconclusive: 35.5 µM [falling, single point]"
CS(=O)(=O)Nc1ccccc1C(=O)Nc1cccc(Cl)c1,inconclusive: -10.9%,
Cc1ccc(NC(=O)NC2CCN(S(=O)(=O)c3ccc(F)cc3)CC2)cc1,inconclusive: -0.512%,
CCOC(=O)CS(=O)(=O)c1nc(-c2ccccc2)cc(C(F)(F)F)n1,inconclusive: 10.1%,
COc1ccc([C@@H]2[C@@H]3C(=O)N(C(C)(C)C)C(=O)[C@@H]3[C@]3(Cc4ccc(Cl)cc4)C(=O)N(c4ccc(C)cc4)C(=O)N23)cc1,inconclusive: -8.74%,
COc1ccc(CCn2c(-c3cccc([N+](=O)[O-])c3)nc3nc4ccccc4nc32)cc1OC,inconclusive: 0.709%,
C/C(=N\NC(=O)c1ccc2c(c1)OCO2)c1ccc2c(c1)OCO2,,"inconclusive: 11.2 µM [falling, partial curve]"
CCCCNc1c(-c2ccc(Sc3ccc(OC)cc3)cc2)nc2cc(C)ccn12,inconclusive: -8.99%,
Cc1cccc2cc(C#N)c(SCC(=O)Nc3ccccc3N3CCOCC3)nc12,inactive: 4.28%,
Cc1cccc(OCC(=O)N2CCN(C(=O)CCC3CCCC3)CC2)c1,inactive: 6.72%,
O=C(Nc1nnc(S(=O)(=O)N2CCCCCC2)s1)c1ccccc1,inconclusive: 22.7%,
COc1ccc(C(=O)N2CCc3cc(OC)c(OC)cc3C2c2ccc(OC)c(OC)c2)cc1OC (stereo not given),inconclusive: -15.2%,
COc1ccccc1NC(=O)Cn1cnc2c(oc3nc4c(cc32)CCCC4)c1=O,,"inconclusive: 8.91 µM [falling, partial curve, poor fit]"
CCn1ccnc1CN(C)Cc1cn(-c2cccc(C)c2)nc1-c1cccc(F)c1,inconclusive: 5.63%,
Cc1cccc(NS(=O)(=O)Cc2ccccc2)c1C,inconclusive: 6.02%,
COc1ccc(S(=O)(=O)N2CCOCC2)cc1C(=O)N1CCCCC1,inconclusive: 2.54%,

SMILES,"activity change, negative = inhibition",Potency
COc1ccc2c(CC(=O)Nc3nccs3)coc2c1,inconclusive: 1.4%,
O=C1NN(c2ccccc2)C(=O)/C1=C/c1coc2ccccc2c1=O,,"inconclusive: 11.6 µM [falling, partial curve, poor fit]"
Cc1ccc(-n2cc(CNCC3CC(=O)N(C4CC4)C3)c(-c3cccc(C)c3)n2)cc1 (stereo not given),inconclusive: -0.826%,
Cc1ccc(C(=O)CNc2ccc(F)cc2)cc1,inconclusive: -0.549%,
O=C(CN1CCCC1)OCCCc1ccccc1,inconclusive: 2.41%,
CCC(=O)Nc1ncc2c(n1)CC(c1ccco1)CC2=O (stereo not given),inconclusive: -5.7%,
O=C(Nc1ccc(Cl)c(Cl)c1)O/N=C/c1ccncc1,inconclusive: 17.2%,
CCNS(=O)(=O)c1ccc(CCC(=O)N2CCCC2)cc1,inactive: 2.36%,
CCCCNC(=O)c1onc(CSc2cccc(F)c2)c1C(=O)O,,"inconclusive: 35.5 µM [falling, single point]"
CN(C)CCCNC(=O)C[C@H]1C[C@H](C(=O)N2CCCCC2)[C@@]2(C)c3[nH]c4ccc(Cl)cc4c3CCN2C1=O,,"inconclusive: 16.4 µM [falling, single point]"
O=C(C1CCN(S(=O)(=O)c2ccc(Cl)cc2)CC1)N1CCOCC1,inconclusive: 7.2%,
Cc1csc(NC(=O)CCc2c(C)nc3cc(-c4cccc(F)c4)nn3c2C)n1,inconclusive: -19.8%,
C/C(=N\Nc1nc2ccccc2[nH]1)c1ccc(N2CCOCC2)cc1,,"inconclusive: 11.2 µM [falling, partial curve]"
Cc1cc(C)c(C)c(S(=O)(=O)N2C(=S)NC(=O)C2C(C)C)c1C (stereo not given),inconclusive: 7.5%,
CCN(CC)CCCN(Cc1cc2cc3c(cc2[nH]c1=O)OCO3)C(=S)NC,inactive: -4.71%,
C=CCn1c(C(C)C)nc2ccccc21,inactive: 14.8%,
COC(=O)c1ccccc1NC(=S)N(Cc1ccc2c(c1)OCO2)Cc1cc2cccc(C)c2[nH]c1=O,inconclusive: 9.24%,
CC(C)(C)n1nc2c(c1NC(=O)Cc1ccc([N+](=O)[O-])cc1)CS(=O)(=O)C2,inactive: 0.426%,
O=C(Cn1cccc1C(=O)c1ccccc1)NCc1ccccc1,inconclusive: 16.4%,
COC(=O)[C@]1(CC(C)C)N[C@H](c2ccc(-c3ccc(C(C)=O)cc3)cc2)[C@@H]2C(=O)N(C)C(=O)[C@@H]21,inactive: -0.379%,
COC(=O)c1nccc2c1[nH]c1ccccc12,,"inconclusive: 23.1 µM [falling, single point]"
CCn1c(=O)n(CC)c2cc(NC(=O)C(C)c3ccccc3)c(Br)cc21 (stereo not given),inactive: 5.13%,
Cc1ccc2nc(N=C(N)N)nc(C)c2c1,,"inconclusive: 2.82 µM [rising, full curve, poor fit]"
O=C(/C=C/c1ccco1)NC(=S)Nc1cc(-c2nc3ccccc3s2)ccc1Cl,inconclusive: -9.41%,
CN(CC(=O)Nc1cccc(F)c1)C(=O)c1cc(-c2cccs2)nn1-c1ccccc1,,"inconclusive: 18.4 µM [falling, partial curve, poor fit]"
CCCC(=O)Nc1ccc(NC(=O)c2ccccn2)cn1,,"inconclusive: 17.8 µM [falling, single point]"
